The list is a part of this screen's results and no random one: it gathers tests that were run many times, whatever their T/C, doses with no T/C, and many T/C values between a quarter and a half above the control. Other doses and runs of a compound stand elsewhere. T/C is the treated group as % of the vehicle group. Some entries give survivors of the animals treated and no T/C: the source files T/C as zero there, which appears to mark a toxic dose or a test without result, not a measured value. Some doses without a T/C left all or most animals alive at the check, yet need not have been tolerated: the source hardly ever lists a survival T/C far under the control, and the zero likely stands for such cases as well. Counts of survivors are from the toxicity check (mostly the fifth day) where no day follows; animals may have died later. Schedule codes are those of the source, read here as Q, the interval in days (D) or hours (H), X, the number of doses. Marks such as (2×) count equal records among those shown. Some doses were run more than once; the values are given in rising order. For survival time, this PubChem deposit counts one and a half times the control or more as active, and values a quarter to a half above the control carry no call in these data; other NCI protocols may use other cut-offs. Some T/C values carry the count of animals alive at the toxicity check (mostly the fifth day); without a count, all were alive then.
Test system: B6C3F1 mice, intracerebral ependymoblastoma, median survival T/C
Test: NCI In Vivo Anticancer Drug Screen. Data for tumor model Ependymoblastoma (intracerebral) in B6C3F1 mice
Conditions: T/C endpoint: median survival time, higher T/C = longer survival
Procedure: The antitumor activity of compounds was measured in mice bearing transplantable tumors. Survival or tumor size were measured and the results are expressed as the measurement made in the treated group (T) divided by the measurement made in the vehicle treated control group (C). The tumor model used in this assay is Ependymoblastoma (intracerebral) in B6C3F1 mice

[1] = dose: 128.0 mg/kg/injection, schedule: Q01DX005 (ip), vehicle: saline
[2] = dose: 16.0 mg/kg/injection, schedule: Q01DX005 (ip), vehicle: saline
[3] = dose: 512.0 mg/kg/injection, schedule: Q01DX001 (ip), vehicle: Klucel (hydroxypropylcellulose) (HPC)
[4] = dose: 320.0 mg/kg/injection, schedule: Q01DX001 (ip), vehicle: saline

Question: Which results are given for `CN(C)c1nc(N(C)C)nc(N(C)C)n1`?
Answer: survivor count (dose: 400.0 mg/kg/injection, schedule: Q01DX005 (ip), vehicle: saline): 9 of 10; survivor count (dose: 800.0 mg/kg/injection, schedule: Q01DX005 (ip), vehicle: saline with Tween-80): 0 of 10; survivor count (dose: 1600.0 mg/kg/injection, schedule: Q01DX001 (ip), vehicle: saline with Tween-80): 5 of 10

Question: How did the survivor count [1] turn out when `COc1cc2cc3c4cc(OC)c(OC)cc4cc[n+]3c(C)c2cc1OC` (tested in a mixture with another compound) was run?
Answer: The survivor count was 8 of 10.

Question: What about the survivor count (dose: 256.0 mg/kg/injection, schedule: Q01DX005 (ip), vehicle: saline) of the same molecule?
Answer: Its survivor count is 0 of 10 and 1 of 10.

Question: How did the T/C (dose: 0.25 mg/kg/injection, schedule: Q01DX005 (ip), vehicle: saline, evaluated on day 45) turn out when `O=CC(NC(=O)N(CCCl)N=O)C(O)C(O)C(O)CO` (centres undefined) was run?
Answer: The T/C was 91 and 100 % of control.

Question: And the T/C (dose: 0.25 mg/kg/injection, schedule: Q01DX005 (ip), vehicle: saline, evaluated on day 60)?
Answer: Its T/C is 93, 97, 112 % of control.

Question: And the T/C (dose: 0.5 mg/kg/injection, schedule: Q01DX005 (ip), vehicle: saline, evaluated on day 45)?
Answer: The T/C was 93 and 101 % of control.

Question: And the T/C (dose: 0.5 mg/kg/injection, schedule: Q01DX005 (ip), vehicle: saline, evaluated on day 60)?
Answer: Its T/C is 100 [9 of 10 alive], 103, 129 % of control.

Question: And the T/C (dose: 1.0 mg/kg/injection, schedule: Q01DX005 (ip), vehicle: saline, evaluated on day 45)?
Answer: The T/C was 93 % of control (2×).

Question: What about the T/C (dose: 1.0 mg/kg/injection, schedule: Q01DX005 (ip), vehicle: saline, evaluated on day 60) of the same molecule?
Answer: Its T/C is 97 and 107 % of control [9 of 10 alive].

Question: And the survivor count (dose: 1.0 mg/kg/injection, schedule: Q01DX005 (ip), vehicle: saline)?
Answer: Its survivor count is 10 of 10.

Question: And the T/C (dose: 1.0 mg/kg/injection, schedule: Q01DX009 (ip), vehicle: saline)?
Answer: Its T/C is 141 % of control.

Question: What about the T/C (dose: 2.0 mg/kg/injection, schedule: Q01DX005 (ip), vehicle: saline, evaluated on day 45) of the same molecule?
Answer: The T/C was 100 and 118 % of control.

Question: What about the T/C (dose: 2.0 mg/kg/injection, schedule: Q01DX005 (ip), vehicle: saline, evaluated on day 60) of the same molecule?
Answer: The T/C was 100, 101, 109 % of control.

Question: What about the T/C (dose: 2.0 mg/kg/injection, schedule: Q01DX009 (ip), vehicle: saline) of the same molecule?
Answer: Its T/C is 143 % of control.

Question: And the T/C (dose: 4.0 mg/kg/injection, schedule: Q01DX005 (ip), vehicle: Klucel (hydroxypropylcellulose) (HPC))?
Answer: The T/C was 131 % of control [9 of 10 alive].

Question: And the T/C (dose: 4.0 mg/kg/injection, schedule: Q01DX005 (ip), vehicle: saline, evaluated on day 45)?
Answer: The T/C was 113 and 128 % of control.

Question: And the T/C (dose: 4.0 mg/kg/injection, schedule: Q01DX005 (ip), vehicle: saline, evaluated on day 60)?
Answer: Its T/C is 106, 113, 129 % of control.

Question: What about the T/C (dose: 8.0 mg/kg/injection, schedule: Q01DX005 (ip), vehicle: Klucel (hydroxypropylcellulose) (HPC)) of the same molecule?
Answer: Its T/C is 128 % of control [9 of 10 alive].

Question: What about the T/C (dose: 8.0 mg/kg/injection, schedule: Q01DX005 (ip), vehicle: saline, evaluated on day 45) of the same molecule?
Answer: Its T/C is 122 % of control.

Question: And the T/C (dose: 8.0 mg/kg/injection, schedule: Q01DX005 (ip), vehicle: saline, evaluated on day 60)?
Answer: The T/C was 123, 129, 134 % of control.

Question: And the survivor count (dose: 8.0 mg/kg/injection, schedule: Q01DX005 (ip), vehicle: saline)?
Answer: The survivor count was 10 of 10.

Question: And the survivor count (dose: 8.0 mg/kg/injection, schedule: Q01DX009 (ip), vehicle: saline)?
Answer: The survivor count was 10 of 10.

Question: And the T/C (dose: 12.5 mg/kg/injection, schedule: Q01DX001 (ip), vehicle: saline)?
Answer: The T/C was 140 % of control.

Question: What about the T/C (dose: 16.0 mg/kg/injection, schedule: Q01DX005 (ip), vehicle: Klucel (hydroxypropylcellulose) (HPC)) of the same molecule?
Answer: Its T/C is 144 % of control.

Question: What about the T/C [2] of the same molecule?
Answer: Its T/C is 130 % of control.

Question: What about the survivor count [2] of the same molecule?
Answer: Its survivor count is 10 of 10 (2×).

Question: What about the survivor count (dose: 16.0 mg/kg/injection, schedule: Q01DX009 (ip), vehicle: saline) of the same molecule?
Answer: Its survivor count is 10 of 10.

Question: What about the survivor count (dose: 32.0 mg/kg/injection, schedule: Q01DX009 (ip), vehicle: saline) of the same molecule?
Answer: The survivor count was 8 of 10.

Question: What about the survivor count (dose: 50.0 mg/kg/injection, schedule: Q01DX001 (ip), vehicle: saline) of the same molecule?
Answer: Its survivor count is 10 of 10.

Question: Which survivor count (dose: 1600.0 mg/kg/injection, schedule: Q01DX005 (ip), vehicle: Klucel (hydroxypropylcellulose) (HPC)) does the source give for `CC(=O)Nc1ccc(/C=N/NC(N)=S)cc1` here?
Answer: The survivor count was 9 of 10.

Question: With `CN=NNc1nc[nH]c1C(N)=O` as the molecule, how does the T/C [1] read?
Answer: The T/C was 138 % of control.

Question: How did the T/C (dose: 64.0 mg/kg/injection, schedule: Q01DX001 (ip), vehicle: Klucel (hydroxypropylcellulose) (HPC)) turn out when `CC(C)=CCC1=C(O)c2ccccc2C(=O)C1=O` was run?
Answer: Its T/C is 101 [survivors not given], 105, 107 [survivors not given], 111 % of control [survivors not given].

Question: What about the T/C (dose: 128.0 mg/kg/injection, schedule: Q01DX001 (ip), vehicle: Klucel (hydroxypropylcellulose) (HPC)) of the same molecule?
Answer: Its T/C is 92 [survivors not given], 100 [survivors not given], 105 [9 of 10 alive], 115 % of control [survivors not given].

Question: And the T/C (dose: 256.0 mg/kg/injection, schedule: Q01DX001 (ip), vehicle: Klucel (hydroxypropylcellulose) (HPC))?
Answer: The T/C was 93 [survivors not given], 94 [survivors not given], 95 [survivors not given], 103 % of control [6 of 10 alive].

Question: And the survivor count (dose: 256.0 mg/kg/injection, schedule: Q01DX005 (ip), vehicle: Klucel (hydroxypropylcellulose) (HPC))?
Answer: Its survivor count is 3 of 10.

Question: What about the T/C [3] of the same molecule?
Answer: Its T/C is 99 % of control [survivors not given].

Question: What about the survivor count [3] of the same molecule?
Answer: The survivor count was 1 of 10.

Question: What does the source list for `CCCCN(C)N=Nc1c(C(N)=O)n[nH]c1C`?
Answer: T/C (dose: 16.0 mg/kg/injection, schedule: Q01DX005 (ip), vehicle: saline with Tween-80): 141 % of control; T/C (dose: 32.0 mg/kg/injection, schedule: Q01DX005 (ip), vehicle: saline with Tween-80): 148 % of control; survivor count (dose: 128.0 mg/kg/injection, schedule: Q01DX005 (ip), vehicle: saline with Tween-80): 7 of 10; survivor count (dose: 256.0 mg/kg/injection, schedule: Q01DX005 (ip), vehicle: saline with Tween-80): 4 of 10

Question: How did the survivor count (dose: 160.0 mg/kg/injection, schedule: Q01DX001 (ip), vehicle: saline) turn out when `C1CN(P2(N3CC3)=NP(N3CC3)(N3CC3)=NP(N3CC3)(N3CC3)=N2)CCO1` (centres undefined) was run?
Answer: Its survivor count is 9 of 10.

Question: What about the survivor count [4] of the same molecule?
Answer: The survivor count was 9 of 10.

Question: With `COc1cccc2c1C(=O)c1c(O)c3c(c(O)c1C2=O)C[C@@](O)(/C(C)=N/NC(=O)c1ccccc1)C[C@@H]3OC1CC(N)C(O)C(C)O1` (some centres undefined) as the molecule, how does the survivor count [2] read?
Answer: The survivor count was 10 of 10.

Question: What about the survivor count (dose: 32.0 mg/kg/injection, schedule: Q01DX005 (ip), vehicle: saline) of the same molecule?
Answer: The survivor count was 9 of 10.

Question: `O=P1(N(CCCl)CCCl)NC(OO)CCO1` (centres undefined) was tested. Which survivor count [4] did it give?
Answer: The survivor count was 1 of 10.

Question: Which results are given for `CCOC(OCC)C(=O)OCC(=O)[C@]1(O)Cc2c(O)c3c(c(O)c2[C@@H](OC2CC(N)C(O)C(C)O2)C1)C(=O)c1c(OC)cccc1C3=O` (some centres undefined)?
Answer: survivor count (dose: 4.0 mg/kg/injection, schedule: Q01DX005 (ip), vehicle: water): 10 of 10; survivor count (dose: 8.0 mg/kg/injection, schedule: Q01DX005 (ip), vehicle: water): 5 of 10 and 10 of 10; survivor count (dose: 16.0 mg/kg/injection, schedule: Q01DX005 (ip), vehicle: water): 3 of 10

Question: How did the survivor count (dose: 8.0 mg/kg/injection, schedule: Q01DX005 (ip), vehicle: dextrose) turn out when `O=C(O)C(O)C(O)C(=O)O.[NH-]C1CCCCC1[NH-].[Pt+2]` (centres undefined) was run?
Answer: The survivor count was 10 of 10.

Question: And the survivor count (dose: 16.0 mg/kg/injection, schedule: Q01DX005 (ip), vehicle: dextrose)?
Answer: Its survivor count is 10 of 10.

Question: What about the survivor count (dose: 32.0 mg/kg/injection, schedule: Q01DX005 (ip), vehicle: dextrose) of the same molecule?
Answer: The survivor count was 8 of 10.

Source: PubChem BioAssay AID226 (DTP/NCI, 2004)
